From article doi:10.64898/2025.12.17.694969
Residue numbers refer to the chain shown, from its start. Read-outs that look alike come from different tables or passages of the source. Results are given in words; binding and its absence hold for the method and conditions named. Binding seen in cells or lysates may run through a third protein. These calls come from enrichment with a bait or labelling near it, and not all partners need be listed. For some of these results: No binding means not detected with the bait. Sequences can lack the tags named with a protein. One block for each molecule: values may come before it.

How the values were obtained:
Experiment in all cases: affinity purification with mass spectrometry
[1] = target: T1, Symplekin with twin-StrepII tag (S. pombe Symplekin/Pta1) (S. pombe) (UniProt Q10222)
T1 sequence: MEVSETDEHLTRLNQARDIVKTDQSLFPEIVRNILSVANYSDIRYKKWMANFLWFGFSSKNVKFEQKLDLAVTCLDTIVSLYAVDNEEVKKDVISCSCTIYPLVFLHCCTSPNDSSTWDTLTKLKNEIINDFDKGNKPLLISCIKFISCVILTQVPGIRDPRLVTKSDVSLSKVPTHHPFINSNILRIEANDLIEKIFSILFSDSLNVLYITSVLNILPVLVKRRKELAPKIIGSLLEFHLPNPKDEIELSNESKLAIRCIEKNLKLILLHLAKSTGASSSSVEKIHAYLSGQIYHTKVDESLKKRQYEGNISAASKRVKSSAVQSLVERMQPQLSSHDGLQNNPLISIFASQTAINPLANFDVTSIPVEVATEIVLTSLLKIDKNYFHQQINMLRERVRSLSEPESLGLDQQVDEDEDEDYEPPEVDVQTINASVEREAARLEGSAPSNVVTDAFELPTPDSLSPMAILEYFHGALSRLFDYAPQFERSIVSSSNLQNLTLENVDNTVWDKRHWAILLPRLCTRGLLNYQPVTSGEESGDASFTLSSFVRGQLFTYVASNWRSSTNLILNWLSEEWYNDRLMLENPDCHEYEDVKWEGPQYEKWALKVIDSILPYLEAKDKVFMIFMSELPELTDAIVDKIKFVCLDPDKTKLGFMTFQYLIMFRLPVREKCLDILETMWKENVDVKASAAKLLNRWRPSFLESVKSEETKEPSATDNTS

[2] = target: T2, V5-tagged Symplekin^WT (S. pombe) (UniProt Q10222)
T2 sequence: T1 sequence

[3] = target: T3, V5-tagged Symplekin^DPR-AAA (S. pombe) (UniProt Q10222)
T3 sequence: T1 sequence with D160A, P161A, R162A

[4] = target: T1, Symplekin with twin-StrepII tag (S. pombe Symplekin/Pta1) (S. pombe); remark: listed apart in the source

- binding [1]: binds
Molecule: WDR82 (S. pombe WDR82/Swd2.2)

- binding [2]: binds
- binding [3]: no binding
Molecule: WDR82 (endogenous, S. pombe)

- binding [4]: binds
B1: Ssu72 (S. pombe) (enzyme, UniProt O42868 1-197)
chain: MAPKTNLQISVICASNQNRSMEAHNVLKNAGYQVDSFGTGSAVRLPGPSIDKPNIYQFGYPYDEIYKELEAQDSRLYTANGLLKMLDRNRRIKRAPCRWQDQDSIYNIVITCEERCYDAICEDLYRRGETLNRPVYLINVDIKDNHEEASVGGKAILDLVNKLTEAQDKLEELFPSIMADFQSNHPKLPVLYTIHFF
